PubChem BioAssay AID1259254, NCATS, 2017

- Aim: 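Finding genes that stop cells copying their DNA twice in one cycle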 (primary screen)
- System: human HCT116 colorectal cancer cells
- Knock-down reagent: single siRNA against human genes
- Duration: 3 days
- Measurement: 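Imaged Hoechst DNA stain sorts each cell into a cycle phase by DNA amount; per plate, G2 fraction set to 0% for non-targeting and 100% for GMNN siRNA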
- Scale: G2 robust z-score and G2 cells, % of GMNN control: higher = more G2 cells, more excess DNA replication
- Active means: 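An siRNA counts as active if its G2 robust z-score lies at least 5 MADs above the screen median; here such calls match roughly 38% of GMNN control or more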
The whole screen tested about 59,000 reagents; shown is a random part of them. Over the whole deposit, about 1,550 (2.6%) are marked active. 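G2 share is only a proxy for re-replication; each gene was hit by three separate siRNAs, and active genes were retested.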 The numbers tell different reagents against one gene apart. Further read-outs or replicates are left out here. Not stated in the record: the amount of reagent.

target	reagent	G2 robust z-score	G2 cells, % of GMNN control	outcome
EFNB2	1	-0.76	-2.38	inactive
EFNB2	2	1.04	10.3	inactive
EFNB2	3	-0.621	-1.4	inactive
KHNYN	1	5.21	39.6	active
KHNYN	2	-0.74	-2.24	inactive
KHNYN	3	-0.996	-4.04	inactive
KLRG1	1	-0.457	-0.246	inactive
KLRG1	2	-0.502	-0.565	inactive
KLRG1	3	-1.85	-10	inactive
GABRB3	1	0.653	7.56	inactive
GABRB3	2	0.0318	3.19	inactive
GABRB3	3	4.81	36.8	inactive
SMARCB1	1	10.7	78.2	active
SMARCB1	2	-0.998	-4.06	inactive
SMARCB1	3	-0.475	-0.376	inactive
SREK1IP1	1	-1.23	-5.68	inactive
SREK1IP1	2	-1.15	-5.14	inactive
SREK1IP1	3	0.0588	3.38	inactive
ALOX15B	1	1.12	10.9	inactive
ALOX15B	2	0.661	7.62	inactive
ALOX15B	3	0.435	6.03	inactive
TRAF3IP2-AS1	1	1.16	11.1	inactive
TRAF3IP2-AS1	2	0.707	7.94	inactive
TRAF3IP2-AS1	3	-0.664	-1.71	inactive
PCNT	1	0.523	6.65	inactive
PCNT	2	0.301	5.09	inactive
PCNT	3	1.49	13.5	inactive
CLSPN	1	-0.0693	2.48	inactive
CLSPN	2	0.325	5.25	inactive
CLSPN	3	-0.985	-3.96	inactive

Copied from above (9 entries):
target	reagent	G2 robust z-score	G2 cells, % of GMNN control	outcome
SREK1IP1	1	-1.23	-5.68	inactive
SREK1IP1	2	-1.15	-5.14	inactive
SREK1IP1	3	0.0588	3.38	inactive
ALOX15B	1	1.12	10.9	inactive
ALOX15B	2	0.661	7.62	inactive
ALOX15B	3	0.435	6.03	inactive
TRAF3IP2-AS1	1	1.16	11.1	inactive
TRAF3IP2-AS1	2	0.707	7.94	inactive
TRAF3IP2-AS1	3	-0.664	-1.71	inactive

Next records follow.
target	reagent	G2 robust z-score	G2 cells, % of GMNN control	outcome
LINC00442	1	0.581	7.06	inactive
LINC00442	2	0.172	4.18	inactive
LINC00442	3	4.84	37	inactive
GSC2	1	0.709	7.96	inactive
GSC2	2	-0.775	-2.48	inactive
GSC2	3	5.17	39.3	active
MTREX	1	2.14	18	inactive
MTREX	2	2.55	20.9	inactive
MTREX	3	1.43	13	inactive
GPNMB	1	-0.898	-3.35	inactive
GPNMB	2	-0.688	-1.87	inactive
GPNMB	3	-1.02	-4.24	inactive
CNPPD1	1	-0.708	-2.01	inactive
CNPPD1	2	-0.67	-1.75	inactive
CNPPD1	3	-0.773	-2.47	inactive
SETD6	1	0.159	4.09	inactive
SETD6	2	-0.273	1.05	inactive
SETD6	3	-1.07	-4.54	inactive
ZNF792	1	-0.588	-1.17	inactive
ZNF792	2	3.58	28.2	inactive
ZNF792	3	0.792	8.54	inactive
EDC3	1	-0.936	-3.62	inactive
EDC3	2	0.301	5.09	inactive
EDC3	3	0.823	8.76	inactive
BRINP2	1	-0.789	-2.59	inactive
BRINP2	2	0.353	5.45	inactive
BRINP2	3	1.02	10.2	inactive
LOC646484 (retired record)	1	0.337	5.34	inactive
LOC646484 (retired record)	2	-0.343	0.552	inactive
LOC646484 (retired record)	3	-0.0905	2.33	inactive
LINC00482	1	-0.719	-2.09	inactive
LINC00482	2	0.11	3.74	inactive
LINC00482	3	-0.88	-3.23	inactive
PTCHD3	1	-0.112	2.18	inactive
PTCHD3	2	-0.362	0.422	inactive
PTCHD3	3	-0.463	-0.292	inactive
CYP2C18	1	-1.15	-5.14	inactive
CYP2C18	2	-0.0951	2.3	inactive
CYP2C18	3	1.71	15	inactive
